Data on two molecules can be found in paper PMC9504391.

No constants are given. Whether binding was seen depends on the method and setting. Binding calls can cover weak binding; strength is not graded here. Sequences can lack the tags named with a protein. For some assays here: In cells and extracts the contact can be indirect.

Test [1] has as its target OsABT fused to the GAL4-binding domain (BD) (rice (Oryza sativa)) (UniProt Q10D64). Kind of test: two-hybrid; OsABT as GAL4 BD fusion, partners as GAL4 AD fusions, yeast strain YRG2; growth on SD/-Leu/-Trp/-His/-Ura medium, 4 days at 30 °C.
Test [2] has as its target OsABT fused to the C-terminal fragment of YFP (rice (Oryza sativa)). The test can be described thus: split reporter; BiFC: OsABT with YFP C-terminal fragment, partners with YFP N-terminal fragment, co-expressed in N. benthamiana leaves; confocal imaging 48 h after transformation.

B1: OsABIL2 fused to the GAL4 activation domain (AD) (protein, UniProt Q6L4R7 1-445)
chain: MEDLALPAAPPAPTLSFTLLAAAAAVAEAMEEALGAALPPLTAPVPAPGDDSACGSPCSVASDCSSVASADFEGFAELGTSLLAGPAVLFDDLTAASVAVAEAAEPRAVGATARSVFAMDCVPLWGLESICGRRPEMEDDYAVVPRFFDLPLWMVAGDAAVDGLDRASFRLPAHFFAVYDGHGGVQVANYCRKRIHAVLTEELRRAEDDACGSDLSGLESKKLWEKAFVDCFSRVDAEVGGNAASGAPPVAPDTVGSTAVVAVVCSSHVIVANCGDSRAVLCRGKQPLPLSLDHKPNREDEYARIEALGGKVIQWNGYRVLGVLAMSRSIGDKYLKPYIIPVPEVTVVARAKDDDCLILASDGLWDVMSNEEVCDAARKRILLWHKKNAATASTSSAQISGDSSDPAAQAAADYLSKLALQKGSKDNITVVVIDLKAHRKFKSKA
Regarding B1, the binding result in test [1] was “binds”.

B2: OsABIL2 fused to the N-terminal fragment of YFP (protein, UniProt Q6L4R7 1-445)
chain: MEDLALPAAPPAPTLSFTLLAAAAAVAEAMEEALGAALPPLTAPVPAPGDDSACGSPCSVASDCSSVASADFEGFAELGTSLLAGPAVLFDDLTAASVAVAEAAEPRAVGATARSVFAMDCVPLWGLESICGRRPEMEDDYAVVPRFFDLPLWMVAGDAAVDGLDRASFRLPAHFFAVYDGHGGVQVANYCRKRIHAVLTEELRRAEDDACGSDLSGLESKKLWEKAFVDCFSRVDAEVGGNAASGAPPVAPDTVGSTAVVAVVCSSHVIVANCGDSRAVLCRGKQPLPLSLDHKPNREDEYARIEALGGKVIQWNGYRVLGVLAMSRSIGDKYLKPYIIPVPEVTVVARAKDDDCLILASDGLWDVMSNEEVCDAARKRILLWHKKNAATASTSSAQISGDSSDPAAQAAADYLSKLALQKGSKDNITVVVIDLKAHRKFKSKA
Take B2: in test [2], the binding entry is on record as “binds”.
